Values quoted from earlier work in paper PMC7690861, “Topical Administration of Cannabidiol: Influence of Vehicle-Related Aspects on Skin Permeation Process” (Pharmaceuticals, 2020).

Set-up: method as in PMID 30534073
Settings: after gastrointestinal intake; ref [5]; cited from earlier work

Which Bioavailability does the source give for `C=C(C)[C@@H]1CCC(C)=C[C@H]1c1c(O)cc(CCCCC)cc1O` [CBD, Cannabidiol] here?
The Bioavailability was 13–19%.
